Measurements reported in publication PMC9681113.

T1: GFP-tagged MAB21L1 Arg51Leu (human) (UniProt Q13394)
T1 sequence: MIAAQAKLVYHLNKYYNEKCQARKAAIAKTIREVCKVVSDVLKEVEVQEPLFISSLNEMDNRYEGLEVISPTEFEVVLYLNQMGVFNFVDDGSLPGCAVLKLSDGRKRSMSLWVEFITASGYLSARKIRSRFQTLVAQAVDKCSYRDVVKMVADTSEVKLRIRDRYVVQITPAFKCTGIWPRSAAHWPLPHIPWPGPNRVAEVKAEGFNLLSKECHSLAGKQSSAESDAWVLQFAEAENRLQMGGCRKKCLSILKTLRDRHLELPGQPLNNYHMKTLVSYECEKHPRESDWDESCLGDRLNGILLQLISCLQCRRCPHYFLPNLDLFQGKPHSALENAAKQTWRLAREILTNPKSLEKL

T2: GFP-tagged wild-type MAB21L1 (human) (UniProt Q13394)
T2 sequence: T1 sequence with L51R

T3: GFP-tagged MAB21L1 Arg51Gln (human) (UniProt Q13394)
T3 sequence: T1 sequence with L51Q

B1: JAGN1 (protein, UniProt Q8N5M9 1-183)
chain: MASRAGPRAAGTDGSDFQHRERVAMHYQMSVTLKYEIKKLIYVHLVIWLLLVAKMSVGHLRLLSHDQVAMPYQWEYPYLLSILPSLLGLLSFPRNNISYLVLSMISMGLFSIAPLIYGSMEMFPAAQQLYRHGKAYRFLFGFSAVSIMYLVLVLAVQVHAWQLYYSKKLLDSWFTSTQEKKHK
B2: HMGCS1 (protein, UniProt Q01581 1-520)
chain: MPGSLPLNAEACWPKDVGIVALEIYFPSQYVDQAELEKYDGVDAGKYTIGLGQAKMGFCTDREDINSLCMTVVQNLMERNNLSYDCIGRLEVGTETIIDKSKSVKTNLMQLFEESGNTDIEGIDTTNACYGGTAAVFNAVNWIESSSWDGRYALVVAGDIAVYATGNARPTGGVGAVALLIGPNAPLIFERGLRGTHMQHAYDFYKPDMLSEYPIVDGKLSIQCYLSALDRCYSVYCKKIHAQWQKEGNDKDFTLNDFGFMIFHSPYCKLVQKSLARMLLNDFLNDQNRDKNSIYSGLEAFGDVKLEDTYFDRDVEKAFMKASSELFSQKTKASLLVSNQNGNMYTSSVYGSLASVLAQYSPQQLAGKRIGVFSYGSGLAATLYSLKVTQDATPGSALDKITASLCDLKSRLDSRTGVAPDVFAENMKLREDTHHLVNYIPQGSIDSLFEGTWYLVRVDEKHRRTYARRPTPNDDTLDEGVGLVHSNIATEHIPSPAKKVPRLPATAAEPEAAVISNGEH
B3: GLMN (protein, UniProt Q92990 1-594)
chain: MAVEELQSIIKRCQILEEQDFKEEDFGLFQLAGQRCIEEGHTDQLLEIIQNEKNKVIIKNMGWNLVGPVVRCLLCKDKEDSKRKVYFLIFDLLVKLCNPKELLLGLLELIEEPSGKQISQSILLLLQPLQTVIQKLHNKAYSIGLALSTLWNQLSLLPVPYSKEQIQMDDYGLCQCCKALIEFTKPFVEEVIDNKENSLENEKLKDELLKFCFKSLKCPLLTAQFFEQSEEGGNDPFRYFASEIIGFLSAIGHPFPKMIFNHGRKKRTWNYLEFEEEENKQLADSMASLAYLVFVQGIHIDQLPMVLSPLYLLQFNMGHIEVFLQRTEESVISKGLELLENSLLRIEDNSLLYQYLEIKSFLTVPQGLVKVMTLCPIETLRKKSLAMLQLYINKLDSQGKYTLFRCLLNTSNHSGVEAFIIQNIKNQIDMSLKRTRNNKWFTGPQLISLLDLVLFLPEGAETDLLQNSDRIMASLNLLRYLVIKDNENDNQTGLWTELGNIENNFLKPLHIGLNMSKAHYEAEIKNSQEAQKSKDLCSITVSGEEIPNMPPEMQLKVLHSALFTFDLIESVLARVEELIEIKTKSTSEENIGIK
B4: ZNF281 (protein, UniProt Q9Y2X9 1-895)
chain: MKIGSGFLSGGGGTGSSGGSGSGGGGSGGGGGGGSSGRRAEMEPTFPQGMVMFNHRLPPVTSFTRPAGSAAPPPQCVLSSSTSAAPAAEPPPPPAPDMTFKKEPAASAAAFPSQRTSWGFLQSLVSIKQEKPADPEEQQSHHHHHHHHYGGLFAGAEERSPGLGGGEGGSHGVIQDLSILHQHVQQQPAQHHRDVLLSSSSRTDDHHGTEEPKQDTNVKKAKRPKPESQGIKAKRKPSASSKPSLVGDGEGAILSPSQKPHICDHCSAAFRSSYHLRRHVLIHTGERPFQCSQCSMGFIQKYLLQRHEKIHSREKPFGCDQCSMKFIQKYHMERHKRTHSGEKPYKCDTCQQYFSRTDRLLKHRRTCGEVIVKGATSAEPGSSNHTNMGNLAVLSQGNTSSSRRKTKSKSIAIENKEQKTGKTNESQISNNINMQSYSVEMPTVSSSGGIIGTGIDELQKRVPKLIFKKGSRKNTDKNYLNFVSPLPDIVGQKSLSGKPSGSLGIVSNNSVETIGLLQSTSGKQGQISSNYDDAMQFSKKRRYLPTASSNSAFSINVGHMVSQQSVIQSAGVSVLDNEAPLSLIDSSALNAEIKSCHDKSGIPDEVLQSILDQYSNKSESQKEDPFNIAEPRVDLHTSGEHSELVQEENLSPGTQTPSNDKASMLQEYSKYLQQAFEKSTNASFTLGHGFQFVSLSSPLHNHTLFPEKQIYTTSPLECGFGQSVTSVLPSSLPKPPFGMLFGSQPGLYLSALDATHQQLTPSQELDDLIDSQKNLETSSAFQSSSQKLTSQKEQKNLESSTGFQIPSQELASQIDPQKDIEPRTTYQIENFAQAFGSQFKSGSRVPMTFITNSNGEVDHRVRTSVSDFSGYTNMMSDVSEPCSTRVKTPTSQSYR
B5: RIOK3 (protein, UniProt O14730 1-519)
chain: MDLVGVASPEPGTAAAWGPSKCPWAIPQNTISCSLADVMSEQLAKELQLEEEAAVFPEVAVAEGPFITGENIDTSSDLMLAQMLQMEYDREYDAQLRREEKKFNGDSKVSISFENYRKVHPYEDSDSSEDEVDWQDTRDDPYRPAKPVPTPKKGFIGKGKDITTKHDEVVCGRKNTARMENFAPEFQVGDGIGMDLKLSNHVFNALKQHAYSEERRSARLHEKKEHSTAEKAVDPKTRLLMYKMVNSGMLETITGCISTGKESVVFHAYGGSMEDEKEDSKVIPTECAIKVFKTTLNEFKNRDKYIKDDFRFKDRFSKLNPRKIIRMWAEKEMHNLARMQRAGIPCPTVVLLKKHILVMSFIGHDQVPAPKLKEVKLNSEEMKEAYYQTLHLMRQLYHECTLVHADLSEYNMLWHAGKVWLIDVSQSVEPTHPHGLEFLFRDCRNVSQFFQKGGVKEALSERELFNAVSGLNITADNEADFLAEIEALEKMNEDHVQKNGRKAASFLKDDGDPPLLYDE
B6: EIF2A (protein, UniProt Q9BY44 1-585)
chain: MAPSTPLLTVRGSEGLYMVNGPPHFTESTVFPRESGKNCKVCIFSKDGTLFAWGNGEKVNIISVTNKGLLHSFDLLKAVCLEFSPKNTVLATWQPYTTSKDGTAGIPNLQLYDVKTGTCLKSFIQKKMQNWCPSWSEDETLCARNVNNEVHFFENNNFNTIANKLHLQKINDFVLSPGPQPYKVAVYVPGSKGAPSFVRLYQYPNFAGPHAALANKSFFKADKVTMLWNKKATAVLVIASTDVDKTGASYYGEQTLHYIATNGESAVVQLPKNGPIYDVVWNSSSTEFCAVYGFMPAKATIFNLKCDPVFDFGTGPRNAAYYSPHGHILVLAGFGNLRGQMEVWDVKNYKLISKPVASDSTYFAWCPDGEHILTATCAPRLRVNNGYKIWHYTGSILHKYDVPSNAELWQVSWQPFLDGIFPAKTITYQAVPSEVPNEEPKVATAYRPPALRNKPITNSKLHEEEPPQNMKPQSGNDKPLSKTALKNQRKHEAKKAAKQEARSDKSPDLAPTPAPQSTPRNTVSQSISGDPEIDKKIKNLKKKLKAIEQLKEQAATGKQLEKNQLEKIQKETALLQELEDLELGI
B7: HAUS5 (protein, UniProt O94927 1-633)
chain: MELAQEARELGCWAVEEMGVPVAARAPESTLRRLCLGQGADIWAYILQHVHSQRTVKKIRGNLLWYGHQDSPQVRRKLELEAAVTRLRAEIQELDQSLELMERDTEAQDTAMEQARQHTQDTQRRALLLRAQAGAMRRQQHTLRDPMQRLQNQLRRLQDMERKAKVDVTFGSLTSAALGLEPVVLRDVRTACTLRAQFLQNLLLPQAKRGSLPTPHDDHFGTSYQQWLSSVETLLTNHPPGHVLAALEHLAAEREAEIRSLCSGDGLGDTEISRPQAPDQSDSSQTLPSMVHLIQEGWRTVGVLVSQRSTLLKERQVLTQRLQGLVEEVERRVLGSSERQVLILGLRRCCLWTELKALHDQSQELQDAAGHRQLLLRELQAKQQRILHWRQLVEETQEQVRLLIKGNSASKTRLCRSPGEVLALVQRKVVPTFEAVAPQSRELLRCLEEEVRHLPHILLGTLLRHRPGELKPLPTVLPSIHQLHPASPRGSSFIALSHKLGLPPGKASELLLPAAASLRQDLLLLQDQRSLWCWDLLHMKTSLPPGLPTQELLQIQASQEKQQKENLGQALKRLEKLLKQALERIPELQGIVGDWWEQPGQAALSEELCQGLSLPQWRLRWVQAQGALQKLCS
B8: PYCR2 (protein, UniProt Q96C36 1-320)
chain: MSVGFIGAGQLAYALARGFTAAGILSAHKIIASSPEMNLPTVSALRKMGVNLTRSNKETVKHSDVLFLAVKPHIIPFILDEIGADVQARHIVVSCAAGVTISSVEKKLMAFQPAPKVIRCMTNTPVVVQEGATVYATGTHALVEDGQLLEQLMSSVGFCTEVEEDLIDAVTGLSGSGPAYAFMALDALADGGVKMGLPRRLAIQLGAQALLGAAKMLLDSEQHPCQLKDNVCSPGGATIHALHFLESGGFRSLLINAVEASCIRTRELQSMADQEKISPAALKKTLLDRVKLESPTVSTLTPSSPGKLLTRSLALGGKKD

What follows are binders tested against T1, GFP-tagged MAB21L1 Arg51Leu (human) (assay: affinity purification with mass spectrometry; GFP pulldown with GFP Tag Immunomagnetic Beads from lysates of HEK-293 Flp-In T-REx cells expressing EGFP, EGFP-MAB21L1 or mutant EGFP-MAB21L1 after 12 hrs of 1 μg/ml tetracycline; three biological replicates; MaxQuant).

binding	Binder
binds	B1
binds	B2
binds	B3
binds	B4
binds	B5
binds	B6
binds	B7
binds	B8

What follows are binders tested against T2, GFP-tagged wild-type MAB21L1 (human) in the same assay as above.

binding	Binder
binds	B1
binds	B2
binds	B3
binds	B4
binds	B5
binds	B6
binds	B7
binds	B8

The binders below were run against T3, GFP-tagged MAB21L1 Arg51Gln (human) in the same assay as above.

binding	Binder
binds	B1
binds	B2
binds	B3
binds	B4
binds	B5
binds	B6
binds	B7
binds	B8

Residue numbers refer to the chain shown, from its start. No constants are given. Whether binding was seen depends on the method and setting. In cells and extracts the contact can be indirect. Here binding means that the protein was enriched with, or labelled near, the bait; the list need not be complete. Where a sequence is shown, tags or fusion partners need not be part of it.
